Experimental data taken from PubChem BioAssay AID1671190 (National Center for Advancing Translational Sciences (NCATS), 2021).
Values joined by “and” are separate entries in the source; they are usually repeats but may differ in a detail not shown here. Equal values may be shown once. About 6,100 (1.1%) of roughly 580,000 compounds were called active. The shares of active, inactive and inconclusive entries below differ from those in the screen. The call rests on the fitted dose curve; in most records, active means well fitted inhibition curve with a large enough effect; inconclusive means small, poorly fitted or top-dose-only effect, or another doubt; inactive means no such curve, though single readings can be large or run the other way. Where the call is inconclusive, the potency comes from a doubtful curve fit.
Potency means the concentration at half of the fitted maximal effect.

Protein sequences, listed by entry. Tags and fused reporters are not part of them. Lines headed by an entry give the natural chain unless they say otherwise; changes in a name come on top.
UniProt P18054: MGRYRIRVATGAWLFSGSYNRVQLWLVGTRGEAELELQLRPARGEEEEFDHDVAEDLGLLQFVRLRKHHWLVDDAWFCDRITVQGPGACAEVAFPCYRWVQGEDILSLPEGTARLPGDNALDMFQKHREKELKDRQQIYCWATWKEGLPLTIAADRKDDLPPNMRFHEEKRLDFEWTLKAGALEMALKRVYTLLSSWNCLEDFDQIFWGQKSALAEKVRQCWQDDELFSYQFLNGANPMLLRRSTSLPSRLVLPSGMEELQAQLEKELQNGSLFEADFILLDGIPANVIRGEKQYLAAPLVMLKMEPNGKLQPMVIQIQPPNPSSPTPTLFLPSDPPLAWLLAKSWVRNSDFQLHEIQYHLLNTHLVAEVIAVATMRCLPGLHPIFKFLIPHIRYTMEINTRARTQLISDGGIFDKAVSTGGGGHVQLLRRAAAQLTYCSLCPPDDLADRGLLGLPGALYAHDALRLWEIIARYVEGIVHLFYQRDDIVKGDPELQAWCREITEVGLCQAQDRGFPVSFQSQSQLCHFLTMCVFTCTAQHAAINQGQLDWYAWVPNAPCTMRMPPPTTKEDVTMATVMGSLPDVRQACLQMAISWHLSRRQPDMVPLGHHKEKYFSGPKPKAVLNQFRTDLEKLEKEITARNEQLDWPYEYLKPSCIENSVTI

The compounds below were run against Polyunsaturated fatty acid lipoxygenase ALOX12 (Homo sapiens) (UniProt P18054) (assay: Primary qHTS assay for inhibitors of human arachidonate 12S-lipoxygenase (ALOX12): Round 2). Conditions: purified 12hLO, xylenol orange hydroperoxide absorbance; series mostly up to 108 µM.
Outline: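 Purified human 12hLO at 150 nM in 25 mM Hepes, 0.01% Triton X-100, pH 7.0, preincubated 15 min at room temperature with compound. Reaction started with 40 uM arachidonic acid, 30 min at room temperature. Hydroperoxide measured by Fe-xylenol orange, 573/405 nm absorbance ratio.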
`Cc1cc(/C=C(\C#N)C(=O)Nc2ccc(Cl)cc2)c(C)n1-c1ccc(N2CCOCC2)c([N+](=O)[O-])c1` was tested, and the Potency was inconclusive: 56.2 µM [inhibitor, partial curve, poor fit]. With `CC(C)OC(=O)CSc1nnc(-c2ccccn2)n1N` the Potency was inconclusive: 100 µM [inhibitor, single point]. For `COc1ccc2c(CCNC(=O)CNc3nc(Cl)nc4nc[nH]c34)c[nH]c2c1`, the Potency was inconclusive: 56.2 µM [inhibitor, partial curve, poor fit]. With `CN(Cc1ccc(Cl)c(Cl)c1)C(=O)c1ccc2c(c1)CCCN2S(C)(=O)=O` the Potency was inconclusive: 100 µM [inhibitor, single point]. `COC(=O)c1c(OCc2cccnc2)cc(=O)n2c1CCN(Cc1cc3c(cc1Cl)OCO3)CC2` was tested, and the Potency was inconclusive: 126 µM [inhibitor, single point]. For `CC1(C)CCC(C)(C)NC(=S)N1`, the Potency was inconclusive: 44.7 µM [inhibitor, full curve, poor fit] and inconclusive: 39.8 µM [inhibitor, partial curve, poor fit]. With `COc1ccc(C2=NN(C(=O)CSc3nc4ccccc4[nH]3)C(c3ccco3)C2)cc1` (configuration not stated) the Potency was “inactive”. In the case of `Cn1c(-c2nnn(-c3ccc(F)cc3)n2)cc2ccccc21`, the Potency was inconclusive: 31.6 µM [inhibitor, partial curve]. In the case of `O=C(c1ccc(S(=O)(=O)NCC2CCCO2)cc1)N1CCN(c2cccc(Cl)c2)CC1` (configuration not stated), the Potency was “inactive”. In the case of `NC(=O)C1CCN(C(=O)CCn2c(=O)oc3ccccc32)CC1`, the Potency was inconclusive: 112 µM [inhibitor, single point]. With `Cc1cccc(-n2c(SCC(N)=O)nc3c(oc4ccccc43)c2=O)c1` the Potency was inconclusive: 141 µM [inhibitor, partial curve, poor fit]. In the case of `O=c1c(Cc2c(F)cccc2Cl)c(O)ccn1CCc1ccccn1`, the Potency was “inactive”. With `CCOc1cnc(-c2ccc(Cl)cc2)o1` the Potency was “inactive”. With `CCNC(=O)CNC(=O)Cn1c(-c2ccccc2)cc2ccccc21` the Potency was inconclusive: 50.1 µM [inhibitor, partial curve, poor fit]. With `Cc1c(Cl)ccc2sc(N3CCN(C(=O)c4ccco4)CC3)nc12` the Potency was inconclusive: 112 µM [inhibitor, partial curve, poor fit]. With `COc1cc(-c2noc(C)c2C#Cc2ccccn2)cc(OC)c1OC` the Potency was inconclusive: 7.08 µM [inhibitor, full curve]. For `CCOC(=O)Cc1cc(=O)n2[nH]c(NCc3ccc(OC)cc3)nc2n1`, the Potency was inconclusive: 12.6 µM [inhibitor, partial curve].
